{"sequences": {"note": "Sequences of proteins named here, by UniProt entry; tags and fusion partners are left off.", "UniProt Q9Y463, whole entry": "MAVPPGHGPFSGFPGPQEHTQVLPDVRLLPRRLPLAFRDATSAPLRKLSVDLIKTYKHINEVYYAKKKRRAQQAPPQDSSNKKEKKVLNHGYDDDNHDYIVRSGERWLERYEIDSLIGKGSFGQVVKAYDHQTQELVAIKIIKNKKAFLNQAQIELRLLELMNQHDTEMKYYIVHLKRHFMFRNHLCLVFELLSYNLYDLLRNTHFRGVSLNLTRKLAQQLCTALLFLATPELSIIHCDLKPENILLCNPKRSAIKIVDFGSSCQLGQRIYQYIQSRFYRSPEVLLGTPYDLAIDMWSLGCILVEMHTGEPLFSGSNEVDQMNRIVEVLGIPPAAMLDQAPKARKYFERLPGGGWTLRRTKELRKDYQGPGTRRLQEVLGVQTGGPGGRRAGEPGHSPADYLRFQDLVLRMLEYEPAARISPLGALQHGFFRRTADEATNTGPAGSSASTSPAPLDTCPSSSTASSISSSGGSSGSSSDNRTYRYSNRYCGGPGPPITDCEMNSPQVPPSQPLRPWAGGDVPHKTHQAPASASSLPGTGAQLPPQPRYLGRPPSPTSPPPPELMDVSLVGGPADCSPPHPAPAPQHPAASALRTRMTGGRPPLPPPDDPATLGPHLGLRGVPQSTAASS"}, "source": "ChEMBL document CHEMBL4725345", "about": "“DFG-1 Residue Controls Inhibitor Binding Mode and Affinity, Providing a Basis for Rational Design of Kinase Inhibitor Selectivity” (J Med Chem, 2020)", "molecular_target": "Dual specificity tyrosine-phosphorylation-regulated kinase 1B (Homo sapiens, UniProt Q9Y463)", "data": [{"smiles": "Cn1cc(-c2ccc3occ(-c4cccc(-c5ccncc5)c4)c3n2)cn1", "values": [{"measurement": "IC50", "result": 956, "unit": "nM"}]}]}
